# Library screen at single concentrations

Source: ChEMBL document CHEMBL3988442, “University of Dundee, Small-Polar-MMV Screening Library” (2021).

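Whole-parasite assay of Trypanosoma brucei over 72 hours; the read-out is not stated. Compounds at 30 µM. Direction is inferred from retests: higher values go with stronger inhibition. Values scatter widely below zero; nearly all retest evidence comes from the higher of the two concentrations used. About 64,000 compounds were tested under these conditions; 1.5% (about 940) showed 50% or more at least once.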

The filed quantity is “Percent Effect” (%). The controls that fix the scale are not given in the record; negative values are as filed. The compounds are a random part of those screened.

- CC1CN(c2ccc(CNC(=O)c3ccn(C)c(=O)c3)cn2)CCO1 (configuration not stated) | -18.55%
- O=C(O)C(F)(F)F.O=C(c1cnccn1)N1CCC2(CC1)CCN(Cc1ccccn1)C2=O | -23.37%
- [H][C@]12CN(c3ncc(CC)cn3)C[C@@]1([H])S(=O)(=O)CC[C@@H]2C(=O)N(C)C | -19.32%
- Cn1cc(-c2ncnc3c2CCN(C(=O)N2CCOCC2)CC3)cn1 | -14.91%
- O=C(O)C(F)(F)F.[H][C@@]12CCN(Cc3nccs3)C[C@@]1([H])O[C@@H](C(=O)NC)C2 | -16.3%
- N#CCc1ccc(NC(=O)Cn2cc(I)cn2)cc1 | 13.65%
- COc1ncnc2c1CCN(c1cc(C(F)(F)F)ncn1)CC2 | -34.49%
- Cc1cc(C(=O)NC2CC(=O)N(C(C)C)C2=O)c(C)n1C(C)C (configuration not stated) | 4.776%
- CN1CCC(NC(=O)c2cc(Br)cc(Cl)c2O)C1=O (configuration not stated) | -12.88%
- O=C(CC1=CSC2=NCCCN12)N1CCCCC1c1cccc(F)c1 (configuration not stated) | 6.038%
- O=C(O)C(F)(F)F.[H][C@@]12CCN(Cc3cc(C)on3)C[C@]1(C(=O)NC(C)C)CCO2 | 33.42%
- [H][C@@]12COC[C@]1([H])[C@@H](OC)CN2C(=O)c1ccc2c(c1)OCO2 | -81.66%
- COCCn1ccc2ccc(NC(=O)NCc3noc(C)n3)cc21 | 4.96%
- O=C(c1cccc(C2CCNC2)c1)N1CCC(c2ccncc2)CC1 (configuration not stated) | -16.02%
- CCCNc1ncc(CN2CCC3(CC2)CNC(=O)C3)cn1 | -17.91%
- CCCS(=O)(=O)NCc1cccnc1OCC | -19.85%
- O=C(CCn1ncc2c(Cl)cccc21)NCC1CC1 | -7.678%
- c1cn(Cc2nnc(C3CCN(C4CCNCC4)CC3)n2C2CC2)cn1 | -35.19%
- Cc1ccc(F)cc1C(=O)OCC1CCCN1C(N)=O (configuration not stated) | 13.81%
- c1ccc(SCCN2CCN(CCn3cncn3)CC2)cc1 | -20.98%
- [H][C@@]12COC[C@@H](CC(=O)N3CCCC3)[C@]1([H])CN(Cc1ccsc1)C2 | -18.58%
- CC(CO)Nc1ccc(-c2nc(Cc3ccc(F)cc3)no2)cn1 (configuration not stated) | -76.83%
- O=S(=O)(Nc1cnn(C2CCOCC2)c1)c1ccc(Br)cc1 | -15.49%
- CCS(=O)(=O)N1CCC2(CC1)CC(CC(=O)NC1CC1)c1ccccc12 (configuration not stated) | -9.629%
- CN(CCCN1CCCC1)[C@@H]1c2ccccc2C2(CCNCC2)[C@H]1O | 10.68%
- O=C(CCc1ccncc1)N1CCc2c(ncnc2N2CCOCC2)C1 | -24.63%
- O=C(O)C(F)(F)F.O=C(O)C(F)(F)F.[H][C@@]12CCN(Cc3ccncc3)[C@]1([H])CC[C@@H](C(=O)NCC1CCOCC1)O2 | -62.66%
- Cc1n[nH]c(C2CN(Cc3csc(C4CCCCC4)n3)CCO2)n1 (configuration not stated) | -80.52%
- CC(C)CC(=O)N(C)Cc1nc(C(F)(F)F)cs1 | -38.05%
- Fc1ccc(N2CCCN(Cc3ccc(-c4cc[nH]n4)o3)CC2)cc1 | -0.806%
- Cc1noc(COCC(=O)N2CCCC(c3nccs3)C2)n1 (configuration not stated) | -34.62%
- c1ccc(-c2nc(CN3CCCC(Cn4cncn4)C3)co2)cc1 (configuration not stated) | 1.22%
- CCOc1c(F)cccc1C(=O)N(c1cccnc1)C(C)C | 99.6%

Some entries from above, unchanged:

{"compound": "c1ccc(SCCN2CCN(CCn3cncn3)CC2)cc1", "percent effect": -20.98}
{"compound": "O=C(c1cccc(C2CCNC2)c1)N1CCC(c2ccncc2)CC1", "stereo": "configuration not stated", "percent effect": -16.02}
{"compound": "CC(C)CC(=O)N(C)Cc1nc(C(F)(F)F)cs1", "percent effect": -38.05}
{"compound": "Cc1n[nH]c(C2CN(Cc3csc(C4CCCCC4)n3)CCO2)n1", "stereo": "configuration not stated", "percent effect": -80.52}